One molecule from publication PMC5337893 can be followed below.

Amino acid sequences for entries named in this document (tags omitted).
UniProt Q61037: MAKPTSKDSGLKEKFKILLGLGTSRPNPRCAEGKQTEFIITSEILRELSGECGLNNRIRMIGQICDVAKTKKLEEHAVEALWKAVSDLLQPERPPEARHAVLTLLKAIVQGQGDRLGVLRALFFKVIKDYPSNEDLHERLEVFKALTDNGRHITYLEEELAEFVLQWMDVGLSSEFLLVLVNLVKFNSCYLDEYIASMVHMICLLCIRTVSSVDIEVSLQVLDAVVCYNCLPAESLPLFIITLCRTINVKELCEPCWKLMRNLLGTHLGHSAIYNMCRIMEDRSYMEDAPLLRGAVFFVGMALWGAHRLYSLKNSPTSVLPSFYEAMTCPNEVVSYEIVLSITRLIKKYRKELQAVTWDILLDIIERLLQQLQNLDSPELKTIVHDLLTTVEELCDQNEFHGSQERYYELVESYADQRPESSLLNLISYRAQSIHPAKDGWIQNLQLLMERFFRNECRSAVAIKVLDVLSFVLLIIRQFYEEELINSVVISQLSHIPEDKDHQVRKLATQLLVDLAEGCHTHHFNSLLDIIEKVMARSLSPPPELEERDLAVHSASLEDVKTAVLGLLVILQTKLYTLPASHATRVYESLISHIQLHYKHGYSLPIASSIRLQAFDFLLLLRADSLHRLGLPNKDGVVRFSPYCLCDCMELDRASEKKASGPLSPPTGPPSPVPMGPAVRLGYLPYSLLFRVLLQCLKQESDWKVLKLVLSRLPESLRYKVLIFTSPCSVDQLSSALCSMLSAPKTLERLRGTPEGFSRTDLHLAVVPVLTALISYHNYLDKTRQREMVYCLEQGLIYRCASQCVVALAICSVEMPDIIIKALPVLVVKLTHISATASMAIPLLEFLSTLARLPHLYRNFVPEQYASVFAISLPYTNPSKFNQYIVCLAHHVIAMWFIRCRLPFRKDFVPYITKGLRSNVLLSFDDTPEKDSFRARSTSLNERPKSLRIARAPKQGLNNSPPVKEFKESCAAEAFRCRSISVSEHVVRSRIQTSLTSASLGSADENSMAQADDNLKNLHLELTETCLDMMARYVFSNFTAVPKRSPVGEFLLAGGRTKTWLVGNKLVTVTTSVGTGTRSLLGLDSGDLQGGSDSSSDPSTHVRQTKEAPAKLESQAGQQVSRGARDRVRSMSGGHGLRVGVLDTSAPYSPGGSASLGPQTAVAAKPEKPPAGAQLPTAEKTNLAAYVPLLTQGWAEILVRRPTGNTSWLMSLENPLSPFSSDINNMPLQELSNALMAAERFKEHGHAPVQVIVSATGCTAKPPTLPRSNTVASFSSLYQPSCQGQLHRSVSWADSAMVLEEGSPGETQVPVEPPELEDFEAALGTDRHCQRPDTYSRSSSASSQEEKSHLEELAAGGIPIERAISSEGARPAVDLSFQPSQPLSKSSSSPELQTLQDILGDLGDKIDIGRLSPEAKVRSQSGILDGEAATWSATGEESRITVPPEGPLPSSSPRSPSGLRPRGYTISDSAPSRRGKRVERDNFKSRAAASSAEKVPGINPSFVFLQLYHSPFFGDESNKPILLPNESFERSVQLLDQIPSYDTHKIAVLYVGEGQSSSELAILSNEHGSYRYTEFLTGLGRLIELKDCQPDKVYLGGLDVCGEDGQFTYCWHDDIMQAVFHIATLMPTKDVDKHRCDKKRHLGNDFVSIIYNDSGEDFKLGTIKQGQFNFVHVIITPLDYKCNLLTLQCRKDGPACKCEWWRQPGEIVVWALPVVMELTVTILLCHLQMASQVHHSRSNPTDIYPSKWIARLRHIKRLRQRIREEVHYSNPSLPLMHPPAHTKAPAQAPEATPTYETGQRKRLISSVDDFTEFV

This test has as its target tuberous sclerosis 2 (TSC2) (mouse (endogenous in C2C12)) (UniProt Q61037). The experiment in a line: co-IP; 1 mg total protein of C2C12 lysate in CHAPS-based buffer (0.3% CHAPS, 40 mM HEPES pH 7.5, 120 mM NaCl, 1 mM EDTA), immunoprecipitated with anti-TSC2 antibody and immobilized protein A, blotted for TSC1; cells unstimulated or stimulated with PMA (100 nM, 20 min), with/without U0126 (10 uM) or BIM-I (10 uM).

These are yes or no findings as the source states them, for the method shown. Binding seen in cells or lysates may run through a third protein. Some binding calls cover weakened binding; strength is not graded here.

B1: tuberous sclerosis 1 (TSC1) (protein, UniProt Q9EP53 1-1161)
chain: MAQLANIGELLSMLDSSTLGVRDDVTAIFKESLNSERGPMLVNTLVDYYLETNSQPVLHILTTLQEPHDKHLLDKINEYVGKAATRLSILSLLGHVVRLQPSWKHKLSQAPLLPSLLKCLKMDTDVVVLTTGVLVLITMLPMIPQSGKQHLLDFFDIFGRLSSWCLKKPGHVTEVYLVHLHASVYALFHRLYGMYPCNFVSFLRSHYSMKENVETFEEVVKPMMEHVRIHPELVTGSKDHELDPRRWKTLETHDVVIECAKISLDPTEASYEDGYSVSHQLSACFPYRSADVTTSPYVDTQNSYGGSTSTPSSSSRLMLFSPPGQLPQSLSSPSTRLLPEPLQASLWSPSAVCGMTTPPTSPGNVPADLSHPYSKAFGTTAGGKGTPSGTPATSPPPAPPCPQDDCVHGSAAQASATAPRKEERADSSRPYLHRQSNDRGLEDPPGSKGSVTLRNLPDFLGDLASEEDSIEKDKEEAAISKELSEITTAEADPVVPRGGFDSPFYRDSLSGSQRKTHSAASGTQGSSVNPEPLHSSLDKHGPDTPKQAFTPIDPPSGSADVSPAGDRDRQTSLETSILTPSPCKIPPQRGVSFGSGQLPPYDHLFEVALPKTACHFVSKKTEELLKKVKGNPEEDCVPSTSPMEVLDRLIEQGAGAHSKELSRLSLPSKSVDWTHFGGSPPSDELRTLRDQLLLLHNQLLYERFKRQQHALRNRRLLRKVIRAAALEEHNAAMKDQLKLQEKDIQMWKVSLQKEQARYSQLQEQRDTMVTQLHSQIRQLQHDREEFYNQSQELQTKLEDCRNMIAELRVELKKANNKVCHTELLLSQVSQKLSNSESVQQQMEFLNRQLLVLGEVNELYLEQLQSKHPDTTKEVEMMKTAYRKELEKNRSHLLQQNQRLDASQRRVLELESLLAKKDHLLLEQKKYLEDVKSQASGQLLAAESRYEAQRKITRVLELEILDLYGRLEKDGRLRKLEEDRAEAAEAAEERLDCCSDGCTDSLVGHNEEASGHNGETRTSRPGGTRASCGGRVTGGSSSSSSELSTPEKPPSQRFSSRWEPALGEPSSSIPTTVGSLPSSKSFLGMKARELFRNKSESQCDEDSVTMSSSSLSETLKTELGKDSGTENKTSLSLDAPHPSSPNSDNVGQLHIMDYNETHPEHS
For B1, the binding entry was “binds”.
